Earlier results as cited in paper PMC4018390, “Important Role of CYP2J2 in Protein Kinase Inhibitor Degradation: A Possible Role in Intratumor Drug Disposition and Resistance” (PLoS ONE, 2014).

Test system: CYP2J2
Conditions: approved drugs identified as CYP2J2 inhibitors; cited from earlier work

CCCCc1oc2ccccc2c1C(=O)c1cc(I)c(OCCN(CC)CC)c(I)c1 [amiodarone]
CYP2J2 inhibition: CYP2J2 inhibitors
